Test results from publication PMC10203406.
These are yes or no findings as the source states them, for the method shown. Binding seen in cells or lysates may run through a third protein. Some results given as binding are weak or reduced against the parent protein; the word gives no strength. Where a sequence is shown, tags or fusion partners need not be part of it.

Biological target: T1, Flag-tagged cGAS (porcine) (porcine) (UniProt I3LM39)
T1 sequence: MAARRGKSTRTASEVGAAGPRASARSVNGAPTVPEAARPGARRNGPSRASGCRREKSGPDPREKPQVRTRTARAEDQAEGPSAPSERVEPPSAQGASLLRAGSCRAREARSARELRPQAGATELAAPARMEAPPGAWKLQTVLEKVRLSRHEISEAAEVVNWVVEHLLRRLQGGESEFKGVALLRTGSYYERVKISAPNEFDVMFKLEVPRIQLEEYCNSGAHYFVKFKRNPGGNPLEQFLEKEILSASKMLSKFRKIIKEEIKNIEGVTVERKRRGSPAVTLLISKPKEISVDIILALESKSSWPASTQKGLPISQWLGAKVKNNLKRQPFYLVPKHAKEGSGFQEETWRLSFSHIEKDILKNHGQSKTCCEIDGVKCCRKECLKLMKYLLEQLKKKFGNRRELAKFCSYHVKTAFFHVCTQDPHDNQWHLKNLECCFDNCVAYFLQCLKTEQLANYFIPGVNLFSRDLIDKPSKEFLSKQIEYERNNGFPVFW
Assay: co-IP

B1: HA-cGAS (porcine) (protein, UniProt I3LM39 1-495)
chain: MAARRGKSTRTASEVGAAGPRASARSVNGAPTVPEAARPGARRNGPSRASGCRREKSGPDPREKPQVRTRTARAEDQAEGPSAPSERVEPPSAQGASLLRAGSCRAREARSARELRPQAGATELAAPARMEAPPGAWKLQTVLEKVRLSRHEISEAAEVVNWVVEHLLRRLQGGESEFKGVALLRTGSYYERVKISAPNEFDVMFKLEVPRIQLEEYCNSGAHYFVKFKRNPGGNPLEQFLEKEILSASKMLSKFRKIIKEEIKNIEGVTVERKRRGSPAVTLLISKPKEISVDIILALESKSSWPASTQKGLPISQWLGAKVKNNLKRQPFYLVPKHAKEGSGFQEETWRLSFSHIEKDILKNHGQSKTCCEIDGVKCCRKECLKLMKYLLEQLKKKFGNRRELAKFCSYHVKTAFFHVCTQDPHDNQWHLKNLECCFDNCVAYFLQCLKTEQLANYFIPGVNLFSRDLIDKPSKEFLSKQIEYERNNGFPVFW
Question: B1 was tested. Which binding did it give?
Answer: binds
